According to patent US11471484B2, “Fullerene and its use to maintain good health and to prolong the expected lifespan of mammals” (priority 2011, dated 2022):
At least one compound was matched to its structure with a doubt left.

Assay: Pharmacokinetics and biodistribution of an oily solution after oral and intra-peritoneal administration in rats
Type: in vivo, male Wistar rats
Conditions: single dose 4 mg/kg, C60 in olive oil 0.8 mg/ml, whole blood
Experimental: Pharmacokinetic studies were carried out with male Wistar rats (weighing 200-220 g). Rats were housed in individual cages and maintained in an air-conditioned room (22-25° C.) on a 12 h light/dark cycle with water and food available. The rats were acclimated for 7 days and they were fasted overnight but with access to water, before treatment.
Under general anesthesia, a catheter was introduced into the rat right jugular vein, positioned subcutaneously with the tip in the inter-scapular region. The prepared rats were then allowed to recover for 24 h, and the blood catheters were flushed with 0.9% NaCl solution containing 20 I U/ml of heparin to avoid possible clot obstruction. Before Ceo administration, the rats were fasted overnight but with access to water. The same single dose of Ceo (4 mg/kg) was delivered orally, by a gavages needle, or intra-peritoneally to two groups of three rats. Blood (0.20 ml) was withdrawn via the canular prior to dosing (f=0) and at 15, 30, 60 min and then at 2, 4, 8, 10, 12, 24 and 48 h post-dosing. Antithrombin heparin (20 IU/ml) was added in each blood sample. After each blood collection 0.20 ml of sterile 0.9% NaCl solution were injected to the animal, to avoid hypovolemia. The rats were sacrificed 48 h after eo administration for organ collection (livers, spleens, and brains). […]

c12c3c4c5c1c1c6c7c2c2c8c3c3c9c4c4c%10c5c5c1c1c6c6c%11c7c2c2c7c8c3c3c8c9c4c4c9c%10c5c5c1c1c6c6c%11c2c2c7c3c3c8c4c4c9c5c1c1c6c2c3c41 [[60]fullerene]
time at which maximal concentration (Cmax) is reached (i.p.): 4 h
time at which maximal concentration (Cmax) is reached (oral): 8 h
